Results as given in the supplement of paper PMC11006884.
This is a selection; strong and weak results do not stand in their true shares.

Protein sequences, listed by entry. Tags and fused reporters are not part of them. Lines headed by an entry give the natural chain unless they say otherwise; changes in a name come on top.
UniProt Q14139: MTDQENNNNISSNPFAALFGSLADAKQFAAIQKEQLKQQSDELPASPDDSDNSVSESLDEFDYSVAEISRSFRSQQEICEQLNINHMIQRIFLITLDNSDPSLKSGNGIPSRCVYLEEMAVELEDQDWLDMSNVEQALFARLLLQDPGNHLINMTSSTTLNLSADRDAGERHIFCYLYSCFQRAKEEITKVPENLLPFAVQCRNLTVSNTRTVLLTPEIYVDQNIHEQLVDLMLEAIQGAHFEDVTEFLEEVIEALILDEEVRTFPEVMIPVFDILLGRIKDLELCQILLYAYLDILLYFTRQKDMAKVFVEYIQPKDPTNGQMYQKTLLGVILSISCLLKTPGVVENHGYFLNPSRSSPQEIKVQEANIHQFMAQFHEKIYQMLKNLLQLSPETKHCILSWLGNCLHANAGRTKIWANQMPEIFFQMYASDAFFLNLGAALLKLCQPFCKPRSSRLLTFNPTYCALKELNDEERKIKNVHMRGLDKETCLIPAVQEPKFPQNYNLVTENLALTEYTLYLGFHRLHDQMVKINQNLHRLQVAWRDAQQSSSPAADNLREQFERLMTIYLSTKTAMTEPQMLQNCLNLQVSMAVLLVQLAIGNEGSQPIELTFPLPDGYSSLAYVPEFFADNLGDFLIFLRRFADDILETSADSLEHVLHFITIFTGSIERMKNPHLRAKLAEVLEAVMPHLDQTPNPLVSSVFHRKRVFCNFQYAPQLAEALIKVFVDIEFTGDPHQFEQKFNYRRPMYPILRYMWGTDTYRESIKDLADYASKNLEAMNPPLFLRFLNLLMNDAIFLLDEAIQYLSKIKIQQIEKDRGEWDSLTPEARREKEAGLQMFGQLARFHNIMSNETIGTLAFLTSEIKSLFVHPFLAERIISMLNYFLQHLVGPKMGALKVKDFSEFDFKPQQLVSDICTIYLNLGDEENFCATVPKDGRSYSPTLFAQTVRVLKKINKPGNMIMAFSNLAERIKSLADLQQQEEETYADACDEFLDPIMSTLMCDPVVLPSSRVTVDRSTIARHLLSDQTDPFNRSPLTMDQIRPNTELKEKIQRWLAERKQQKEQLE
UniProt Q14152, whole entry, looked up: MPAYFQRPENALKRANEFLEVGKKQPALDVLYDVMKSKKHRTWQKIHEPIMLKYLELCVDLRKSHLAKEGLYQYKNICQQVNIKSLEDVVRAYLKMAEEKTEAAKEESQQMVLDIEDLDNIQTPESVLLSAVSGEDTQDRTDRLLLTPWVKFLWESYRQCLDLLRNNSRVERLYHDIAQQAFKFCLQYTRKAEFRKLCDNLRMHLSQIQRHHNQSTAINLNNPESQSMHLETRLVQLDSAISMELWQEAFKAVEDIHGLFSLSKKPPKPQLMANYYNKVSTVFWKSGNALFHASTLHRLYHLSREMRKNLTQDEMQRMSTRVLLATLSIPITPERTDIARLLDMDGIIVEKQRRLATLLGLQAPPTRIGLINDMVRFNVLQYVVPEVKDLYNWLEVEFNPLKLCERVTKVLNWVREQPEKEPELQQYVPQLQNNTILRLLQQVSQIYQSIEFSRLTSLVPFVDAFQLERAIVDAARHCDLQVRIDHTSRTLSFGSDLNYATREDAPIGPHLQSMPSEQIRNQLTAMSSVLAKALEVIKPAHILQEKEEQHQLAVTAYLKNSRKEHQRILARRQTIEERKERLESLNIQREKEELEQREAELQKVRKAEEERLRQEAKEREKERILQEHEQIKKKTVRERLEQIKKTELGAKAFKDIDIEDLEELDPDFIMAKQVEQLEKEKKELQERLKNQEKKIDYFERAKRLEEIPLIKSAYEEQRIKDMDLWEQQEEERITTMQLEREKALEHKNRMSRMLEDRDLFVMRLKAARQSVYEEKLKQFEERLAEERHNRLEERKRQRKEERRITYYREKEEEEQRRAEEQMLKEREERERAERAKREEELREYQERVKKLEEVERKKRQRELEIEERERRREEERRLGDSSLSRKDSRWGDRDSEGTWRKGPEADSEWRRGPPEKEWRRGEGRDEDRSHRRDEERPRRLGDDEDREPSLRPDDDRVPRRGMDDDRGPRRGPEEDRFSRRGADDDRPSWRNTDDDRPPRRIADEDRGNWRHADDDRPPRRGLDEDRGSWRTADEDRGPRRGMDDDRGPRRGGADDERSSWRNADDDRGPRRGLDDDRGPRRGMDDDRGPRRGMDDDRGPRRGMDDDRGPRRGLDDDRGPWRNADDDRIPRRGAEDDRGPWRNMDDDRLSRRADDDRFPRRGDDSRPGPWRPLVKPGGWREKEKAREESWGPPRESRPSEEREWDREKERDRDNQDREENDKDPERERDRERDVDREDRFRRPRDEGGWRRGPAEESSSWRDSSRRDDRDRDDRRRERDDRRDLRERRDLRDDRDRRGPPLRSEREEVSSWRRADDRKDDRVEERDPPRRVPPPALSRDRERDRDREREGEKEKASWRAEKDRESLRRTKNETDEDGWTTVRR
UniProt Q14C86: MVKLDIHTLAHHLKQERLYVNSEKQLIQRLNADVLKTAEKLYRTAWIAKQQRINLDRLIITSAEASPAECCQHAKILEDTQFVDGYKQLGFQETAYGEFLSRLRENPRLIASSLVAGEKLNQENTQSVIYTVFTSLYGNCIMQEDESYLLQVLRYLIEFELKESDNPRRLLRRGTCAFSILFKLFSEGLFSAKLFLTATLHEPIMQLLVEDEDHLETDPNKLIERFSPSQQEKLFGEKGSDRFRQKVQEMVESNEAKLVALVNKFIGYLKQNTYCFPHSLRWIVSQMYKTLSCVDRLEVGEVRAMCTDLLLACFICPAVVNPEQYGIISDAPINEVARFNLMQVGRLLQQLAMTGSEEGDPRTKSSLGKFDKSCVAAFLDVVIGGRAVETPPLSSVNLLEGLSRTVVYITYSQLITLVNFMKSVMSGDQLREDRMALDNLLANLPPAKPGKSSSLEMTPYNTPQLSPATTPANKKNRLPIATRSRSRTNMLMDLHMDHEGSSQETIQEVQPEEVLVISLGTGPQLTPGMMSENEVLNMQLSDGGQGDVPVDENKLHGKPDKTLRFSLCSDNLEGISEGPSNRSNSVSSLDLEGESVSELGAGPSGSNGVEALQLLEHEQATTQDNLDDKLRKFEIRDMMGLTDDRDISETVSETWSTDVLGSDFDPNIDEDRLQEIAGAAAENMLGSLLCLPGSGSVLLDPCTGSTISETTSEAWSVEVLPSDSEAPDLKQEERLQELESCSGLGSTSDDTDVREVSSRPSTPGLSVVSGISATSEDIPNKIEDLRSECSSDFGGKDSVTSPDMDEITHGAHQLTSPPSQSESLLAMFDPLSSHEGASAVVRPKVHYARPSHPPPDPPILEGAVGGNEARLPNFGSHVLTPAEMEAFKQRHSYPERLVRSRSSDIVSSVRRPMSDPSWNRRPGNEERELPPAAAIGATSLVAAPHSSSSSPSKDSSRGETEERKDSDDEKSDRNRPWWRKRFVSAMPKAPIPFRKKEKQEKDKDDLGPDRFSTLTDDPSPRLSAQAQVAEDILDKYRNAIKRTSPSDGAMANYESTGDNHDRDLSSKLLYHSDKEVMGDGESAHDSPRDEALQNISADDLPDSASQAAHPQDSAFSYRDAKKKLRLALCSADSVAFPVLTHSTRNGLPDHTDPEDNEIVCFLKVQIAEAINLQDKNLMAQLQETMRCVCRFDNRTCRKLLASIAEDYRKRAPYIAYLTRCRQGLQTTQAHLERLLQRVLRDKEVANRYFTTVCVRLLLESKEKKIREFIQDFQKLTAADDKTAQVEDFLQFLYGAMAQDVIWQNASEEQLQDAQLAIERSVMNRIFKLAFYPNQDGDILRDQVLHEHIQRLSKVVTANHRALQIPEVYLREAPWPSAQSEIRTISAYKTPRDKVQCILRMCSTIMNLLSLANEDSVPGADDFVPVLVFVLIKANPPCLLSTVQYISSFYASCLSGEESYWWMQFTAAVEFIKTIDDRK
UniProt Q13642: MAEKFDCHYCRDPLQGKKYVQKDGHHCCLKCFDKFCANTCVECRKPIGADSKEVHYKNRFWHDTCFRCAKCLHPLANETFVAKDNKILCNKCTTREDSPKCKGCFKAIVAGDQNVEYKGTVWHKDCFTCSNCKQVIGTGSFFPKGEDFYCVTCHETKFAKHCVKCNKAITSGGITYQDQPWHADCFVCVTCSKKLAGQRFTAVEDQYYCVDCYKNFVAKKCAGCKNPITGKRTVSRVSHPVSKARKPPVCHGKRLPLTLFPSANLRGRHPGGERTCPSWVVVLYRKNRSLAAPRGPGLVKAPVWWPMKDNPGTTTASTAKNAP
UniProt Q13643: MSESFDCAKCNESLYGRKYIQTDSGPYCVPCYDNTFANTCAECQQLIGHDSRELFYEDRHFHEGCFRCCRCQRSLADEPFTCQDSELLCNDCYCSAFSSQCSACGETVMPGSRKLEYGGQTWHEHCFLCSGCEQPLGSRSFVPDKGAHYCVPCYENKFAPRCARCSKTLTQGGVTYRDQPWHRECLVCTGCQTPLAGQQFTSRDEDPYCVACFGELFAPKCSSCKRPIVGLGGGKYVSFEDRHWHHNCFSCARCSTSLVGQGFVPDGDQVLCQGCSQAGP
UniProt Q14574: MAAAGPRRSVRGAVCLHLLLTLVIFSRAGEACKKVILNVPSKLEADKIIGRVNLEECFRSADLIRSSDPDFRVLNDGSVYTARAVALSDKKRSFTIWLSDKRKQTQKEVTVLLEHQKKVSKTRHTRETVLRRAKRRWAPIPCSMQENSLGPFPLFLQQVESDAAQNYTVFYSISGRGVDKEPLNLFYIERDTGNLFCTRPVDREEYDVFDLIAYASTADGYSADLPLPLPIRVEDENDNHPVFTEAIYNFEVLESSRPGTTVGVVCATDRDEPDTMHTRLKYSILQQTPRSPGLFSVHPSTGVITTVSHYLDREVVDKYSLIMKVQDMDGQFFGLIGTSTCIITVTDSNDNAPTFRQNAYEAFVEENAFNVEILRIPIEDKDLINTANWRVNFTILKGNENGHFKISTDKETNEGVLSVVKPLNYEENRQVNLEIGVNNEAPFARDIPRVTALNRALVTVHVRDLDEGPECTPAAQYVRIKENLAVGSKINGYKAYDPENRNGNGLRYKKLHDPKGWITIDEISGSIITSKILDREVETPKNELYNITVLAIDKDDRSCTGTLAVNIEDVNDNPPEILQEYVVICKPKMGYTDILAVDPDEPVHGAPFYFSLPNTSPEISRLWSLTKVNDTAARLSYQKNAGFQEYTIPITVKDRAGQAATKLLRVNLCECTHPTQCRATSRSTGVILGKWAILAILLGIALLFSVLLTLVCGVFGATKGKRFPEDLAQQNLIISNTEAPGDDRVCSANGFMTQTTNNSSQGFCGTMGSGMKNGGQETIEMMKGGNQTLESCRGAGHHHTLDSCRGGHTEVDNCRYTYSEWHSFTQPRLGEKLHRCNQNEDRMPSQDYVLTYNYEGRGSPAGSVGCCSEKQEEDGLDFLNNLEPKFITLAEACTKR
UniProt Q13885, whole entry, looked up: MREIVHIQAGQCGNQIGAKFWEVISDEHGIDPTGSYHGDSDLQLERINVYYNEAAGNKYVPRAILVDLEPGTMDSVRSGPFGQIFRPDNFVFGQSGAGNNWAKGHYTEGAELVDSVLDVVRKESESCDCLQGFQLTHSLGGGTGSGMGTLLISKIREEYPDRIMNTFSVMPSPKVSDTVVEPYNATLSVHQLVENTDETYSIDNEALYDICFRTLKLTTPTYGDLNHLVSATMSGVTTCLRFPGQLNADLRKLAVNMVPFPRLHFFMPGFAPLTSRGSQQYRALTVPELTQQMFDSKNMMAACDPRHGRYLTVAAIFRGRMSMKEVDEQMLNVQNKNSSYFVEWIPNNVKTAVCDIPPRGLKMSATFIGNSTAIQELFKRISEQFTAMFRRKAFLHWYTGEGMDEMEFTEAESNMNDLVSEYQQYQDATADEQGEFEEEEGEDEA
UniProt Q13542: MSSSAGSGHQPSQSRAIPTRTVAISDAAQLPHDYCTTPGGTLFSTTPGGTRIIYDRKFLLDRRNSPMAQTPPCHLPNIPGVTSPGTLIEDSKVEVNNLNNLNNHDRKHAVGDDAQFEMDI
UniProt Q14790: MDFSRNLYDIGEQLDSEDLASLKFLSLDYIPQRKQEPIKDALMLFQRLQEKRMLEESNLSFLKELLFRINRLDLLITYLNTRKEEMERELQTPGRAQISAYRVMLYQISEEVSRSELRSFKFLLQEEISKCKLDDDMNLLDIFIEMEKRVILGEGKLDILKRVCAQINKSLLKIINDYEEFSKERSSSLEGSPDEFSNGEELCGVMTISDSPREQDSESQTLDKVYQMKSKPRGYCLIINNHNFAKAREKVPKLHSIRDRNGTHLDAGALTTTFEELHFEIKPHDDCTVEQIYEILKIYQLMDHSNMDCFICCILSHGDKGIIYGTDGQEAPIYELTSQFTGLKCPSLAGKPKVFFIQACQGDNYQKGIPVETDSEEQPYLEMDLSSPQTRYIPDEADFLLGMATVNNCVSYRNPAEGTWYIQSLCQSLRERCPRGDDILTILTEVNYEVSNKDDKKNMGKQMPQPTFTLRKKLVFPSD

What follows are targets tested with COC(=O)C#Cc1ccccc1 [methyl 3-phenylpropiolate] (assay: log2 ratio of iodoacetamide-alkyne labeling of the cysteine site, DMSO over compound (competition); higher = stronger covalent engagement of the cysteine by the compound, active = 1 or more). Conditions: 500 µM; treatment time 1 h; system: HEK293T cell lysate.
In short: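 Electrophile (500 µM) or vehicle was added to HEK293T lysate (2 mg/mL) for 1 h at ambient temperature before iodoacetamide alkyne labelling (1 h) and click coupling to sCIP-TMT reagents. After pooling, overnight trypsin digestion at 37 °C, streptavidin enrichment and acid elution, peptides were measured by Orbitrap Eclipse LC-MS/MS with FAIMS and quantified in FragPipe. Each cysteine's log2 competition ratio compares mean control-channel with mean compound-channel reporter intensity, control over compound. Data came from duplicate channels across three replicates, excluding cysteines quantified in only one replicate.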

log2 ratio of iodoacetamide-alkyne labeling, inactive:
UBE4A C710 (UniProt Q14139) -0.03, EIF3A C404 (UniProt Q14152) 0.447, GAPVD1 C741 (UniProt Q14C86) 0.233, DYNC1H1 C3147 (UniProt Q14204) 0.433, HLTF C360 (UniProt Q14527) 0.323, FHL1 C185 (UniProt Q13642) -0.145, FHL3 C153 (UniProt Q13643) 0.146, GAPVD1 C568 (UniProt Q14C86) 0.475, UniProt Q14574_C471 0.274, CBX2 C222 (UniProt Q14781) 0.267, SQSTM1 C331 (UniProt Q13501) 0.0188, ZNF638 C1654 (UniProt Q14966) 0.188, UniProt Q13885_C211 0.278, EIF4EBP2 C35 (UniProt Q13542) 0.489, GAMT C16 (UniProt Q14353) 0.275

log2 ratio of iodoacetamide-alkyne labeling, active:
CASP8 C360 (UniProt Q14790) 1.2
